PubChem BioAssay AID602196, INSERM – 2012
Shown is an unselected part of about 23,000 reagents tested. 455 of all reagents (2%) count as active. 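Active includes both protection and sensitisation; some change values fall well beyond the stated -50 to +50 range.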 Not all columns of the deposit are shown. The record does not give: the amount of reagent.

- Test: 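Genes whose knock-down alters cisplatin killing of lung cancer cells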
- System: human A549 lung cancer cells
- Knock-down reagent: siRNA pair against human genes
- Timing: 48 h transfection before cisplatin; time from cisplatin to read-out not stated
- Challenge: cisplatin at a dose killing half of control-siRNA cells; exact dose and duration not given
- Detection: 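Shift in cisplatin death relative to control siRNA, from -50 (all cells die) to +50 (no cells die); siRNAs harmful on their own scored 0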
- Reading the numbers: two-siRNA summed score (-2 to +2): higher = both siRNAs protect from cisplatin killing; -2 means both sensitise
- Active means: 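Each siRNA scores 0 if harmful alone by LDH or WST-1, otherwise +1 if it reduces and -1 if it increases cisplatin killing; a gene is active when both siRNAs agree (sum +2 or -2)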
- Calls: active = both siRNAs shift cisplatin killing the same way; inactive = no consistent shift, or siRNA harmful alone

target | two-siRNA summed score (-2 to +2) | Call
POLR1HASP (POLR1H antisense, pseudogene) | 0 | inactive
DIABLO (diablo IAP-binding mitochondrial protein) | 1 | inactive
LOC389289 | -1 | inactive
G3BP1 (G3BP stress granule assembly factor 1) | -1 | inactive
USP18 (ubiquitin specific peptidase 18) | -1 | inactive
BAD (BCL2 associated agonist of cell death) | 0 | inactive
BBOX1 (gamma-butyrobetaine hydroxylase 1) | 0 | inactive
LOC203413 | 0 | inactive
CCNB2 (cyclin B2) | 0 | inactive
POC1A (POC1 centriolar protein A) | -1 | inactive
NDC1 (NDC1 transmembrane nucleoporin) | 0 | inactive
ACAP2 (ArfGAP with coiled-coil, ankyrin repeat and PH domains 2) | 0 | inactive
CHTF18 (chromosome transmission fidelity factor 18) | 0 | inactive
LOC440606 | 0 | inactive
MKNK1 (MAPK interacting serine/threonine kinase 1) | 2 | active
LOC440998 | 0 | inactive
SCD5 (stearoyl-CoA desaturase 5) | 0 | inactive
ITFG2 (integrin alpha FG-GAP repeat containing 2) | 0 | inactive
APBA2 (amyloid beta precursor protein binding family A member 2) | 1 | inactive
CCDC124 (coiled-coil domain containing 124) | 0 | inactive
FNDC5 (fibronectin type III domain containing 5) | 1 | inactive
PCSK7 (proprotein convertase subtilisin/kexin type 7) | 0 | inactive
THAP8 (THAP domain containing 8) | 0 | inactive
LOC442132 (golgin A6 family-like 1 pseudogene) | 0 | inactive
RIF1 (replication timing regulatory factor 1) | 0 | inactive
LOC400464 (ubiquitin conjugating enzyme E2 Q2 pseudogene) | 0 | inactive
ARL2BP (ARF like GTPase 2 binding protein) | 1 | inactive
CCL23 (C-C motif chemokine ligand 23) | 0 | inactive
NCEH1 (neutral cholesterol ester hydrolase 1) | 0 | inactive
RPL10A (ribosomal protein L10a) | 0 | inactive
HAUS5 (HAUS augmin like complex subunit 5) | 0 | inactive
CCDC77 (coiled-coil domain containing 77) | 0 | inactive
LOC442722 | 0 | inactive
CCDC183 (coiled-coil domain containing 183) | 0 | inactive
TBPL2 (TATA-box binding protein like 2) | 1 | inactive
PURB (purine rich element binding protein B) | 0 | inactive
MID2 (midline 2) | 0 | inactive
PLCD1 (phospholipase C delta 1) | -1 | inactive
MOCOS (molybdenum cofactor sulfurase) | 1 | inactive
PCDHB12 (protocadherin beta 12) | 0 | inactive
ATP2B4 (ATPase plasma membrane Ca2+ transporting 4) | -1 | inactive
NFKBIB (NFKB inhibitor beta) | 0 | inactive
LOC121456 | 0 | inactive
LOC255649 | 0 | inactive
KRT81 (keratin 81) | 1 | inactive
EPC2 (enhancer of polycomb 2) | 0 | inactive
ITPKB (inositol-trisphosphate 3-kinase B) | 2 | active
SBNO2 (strawberry notch homolog 2) | 0 | inactive
SOX2-OT (SOX2 overlapping transcript) | 0 | inactive
CNIH4 (cornichon family member 4) | 0 | inactive
PHF14 (PHD finger protein 14) | 0 | inactive
OR10A7 (olfactory receptor family 10 subfamily A member 7) | 0 | inactive
LINC00851 (long independently transcribed non-coding RNA 851) | 1 | inactive
PUM1 (pumilio RNA binding family member 1) | 2 | active
C2orf69 (chromosome 2 open reading frame 69) | 0 | inactive
AMACR (alpha-methylacyl-CoA racemase) | 0 | inactive
TFG (trafficking from ER to golgi regulator) | 0 | inactive
